{"sequences": {"note": "Amino acid sequences for entries named in this document (tags omitted). A change or cut given only in a name is not applied to a line headed by its entry.", "UniProt P51450": "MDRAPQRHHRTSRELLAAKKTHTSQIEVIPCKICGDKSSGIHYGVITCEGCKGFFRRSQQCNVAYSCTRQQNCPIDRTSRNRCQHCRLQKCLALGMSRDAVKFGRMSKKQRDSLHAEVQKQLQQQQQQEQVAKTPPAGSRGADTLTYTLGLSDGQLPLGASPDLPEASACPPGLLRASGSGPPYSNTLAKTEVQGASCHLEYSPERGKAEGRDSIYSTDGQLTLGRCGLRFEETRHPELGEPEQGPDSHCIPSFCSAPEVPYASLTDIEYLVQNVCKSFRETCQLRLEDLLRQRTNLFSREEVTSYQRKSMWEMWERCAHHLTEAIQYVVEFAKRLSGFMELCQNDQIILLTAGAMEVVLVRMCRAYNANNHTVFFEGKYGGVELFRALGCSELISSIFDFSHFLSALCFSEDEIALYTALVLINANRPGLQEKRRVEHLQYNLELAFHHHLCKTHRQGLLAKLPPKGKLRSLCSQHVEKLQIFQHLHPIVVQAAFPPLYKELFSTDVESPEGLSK"}, "source": "PubChem BioAssay AID2551", "about": "(National Center for Advancing Translational Sciences (NCATS), 2010)", "note": "Among all 310,000 compounds or so, about 17,000 (5.5%) were called active. The inconclusive results got no clear call from the source; some entries with a clear call stand among them for comparison. Calls follow the shape of the dose curve; as a rule, active = well fitted inhibition curve with a large enough effect; inconclusive = small, poorly fitted or top-dose-only effect, or effect the other way; inactive = no such curve, though single readings can be large or run the other way. Potencies of inconclusive entries are doubtful fits and often do not repeat. Potency is read from the fitted curve at half-maximal effect.", "data": [{"target": "Nuclear receptor ROR-gamma (Mus musculus) (UniProt P51450)", "assay": "qHTS for inhibitors of ROR gamma transcriptional activity; also: nearly all actives have a fitted effect of over 60% in size", "details": "Drosophila S2 Gal4-RORgamma UAS-luciferase reporter, 20 h; series mostly up to 53.6 µM", "in_short": "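Drosophila S2 cells stably expressing Gal4-DBD/mouse RORγ fusion under metallothionein promoter plus UAS-luciferase; compound 1 h, then 700 uM CuSO4 induction for 20 h at ambient temperature; inhibition read as reduced luminescence.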", "values": [{"molecule": "O=C(NCc1ccco1)c1ccc2ccccc2c1", "Potency": "inconclusive: 35.5 µM [inhibitor, single point]"}, {"molecule": "COC(=O)C1CC(c2c(OC)cc(OC)cc2OC)=NO1", "note": "(stereo unspecified)", "Potency": "inconclusive: 0.005 µM [inhibitor, full curve, poor fit]"}, {"molecule": "c1cncc(-c2nc(N3CCOCC3)c3c4c(sc3n2)CCC4)c1", "Potency": "inactive"}, {"molecule": "O=S(=O)(NCCc1ccccn1)c1ccc(F)c(F)c1", "Potency": "inactive"}, {"molecule": "COCC(=O)Nc1nc2n(n1)C(c1ccccc1)CC(c1ccc(OC)cc1)N2", "note": "(stereo unspecified)", "Potency": "inactive"}, {"molecule": "O=C(CSc1ccc2nnc(-c3ccccc3)n2n1)NCc1ccc2c(c1)OCO2", "Potency": "inactive"}, {"molecule": "N#Cc1cnc(NN)nc1", "Potency": "inactive"}, {"molecule": "O=[N+]([O-])c1cc([N+](=O)[O-])c2c(=Nc3ccccc3)n(-c3ccccc3)n(O)c2c1", "Potency": "active: 12.6 µM"}, {"molecule": "O=C(NCCCN1CCN(Cc2ccccc2)CC1)C1CCN(c2nnc(-n3cccc3)s2)CC1", "Potency": "inconclusive: 15.8 µM [activator, single point]"}, {"molecule": "N/C(=N\\C(=S)Nc1ccccc1)c1ccccc1", "Potency": "active: 7.94 µM"}, {"molecule": "CC(=O)Nc1nnc(SCC(=O)c2ccc3c(c2)Cc2ccccc2-3)s1", "Potency": "inactive"}, {"molecule": "COc1ccc(NC(=O)CC2COc3ccccc3O2)c(OC)c1", "note": "(stereo unspecified)", "Potency": "inconclusive: 14.1 µM [activator, single point]"}, {"molecule": "CN(c1ccc(C(=O)N2CCc3ccccc3C2)cc1)S(C)(=O)=O", "Potency": "inconclusive: 2 µM [activator, partial curve]"}, {"molecule": "Cc1cc(N/N=C/c2ccccc2)nc(N2CCOCC2)n1", "Potency": "inactive"}, {"molecule": "Cn1c(=O)c2c(nc(NC3CCCCC3)n2CC(=O)C23CC4CC(CC(C4)C2)C3)n(C)c1=O", "Potency": "inconclusive: 12.6 µM [activator, single point]"}, {"molecule": "S=C(NC1CCCC1)N1CCN(C/C=C/c2ccccc2)CC1", "Potency": "inconclusive: 35.5 µM [inhibitor, single point]"}, {"molecule": "O=C(CN1CCCC1)Nc1cccc(Cl)c1Cl", "Potency": "inconclusive: 0.794 µM [inhibitor, partial curve, poor fit]"}, {"molecule": "O=C(Nc1nccs1)c1cc2c(s1)-c1ccccc1OC2", "Potency": "active: 5.01 µM"}, {"molecule": "Cc1ccc(Nc2nc(NCCCN3CCOCC3)nc(N)c2[N+](=O)[O-])cc1", "Potency": "inactive"}, {"molecule": "CCOc1ccc(S(=O)(=O)Nc2ccccc2C(=O)Nc2ccccc2N2CCOCC2)cc1", "Potency": "inconclusive: 6.31 µM [inhibitor, single point]"}, {"molecule": "CCC(=O)Nc1nc2ccccc2n1CCN1CCOCC1", "Potency": "active: 14.1 µM"}, {"molecule": "CN(C)c1ccc(/C=C/C(=O)c2ccccc2)cc1[N+](=O)[O-]", "Potency": "inconclusive: 25.1 µM [inhibitor, single point]"}, {"molecule": "Cc1ccc(C(=O)CSc2nnnn2C(C)C)c(C)c1", "Potency": "active: 11.2 µM"}, {"molecule": "CCCc1nc(NCC2CCCO2)c2nnn(Cc3ccccc3)c2n1", "note": "(stereo unspecified)", "Potency": "inconclusive: 14.1 µM [activator, single point]"}, {"molecule": "O=[N+]([O-])c1ccccc1N/N=C1\\CC2CC=CC12", "note": "(stereo unspecified)", "Potency": "inactive"}, {"molecule": "COc1cc(Br)c(Br)c(Br)c1N", "Potency": "inconclusive: 35.5 µM [inhibitor, single point]"}, {"molecule": "CC(C)(C(=O)N[C@H](CO)c1ccccc1)C(=O)N[C@H](CO)c1ccccc1", "Potency": "active: 2 µM"}, {"molecule": "CCOc1cc(NC(=S)NCCCN(C)C)c(OCC)cc1NC(=O)C1CC1", "Potency": "inactive"}, {"molecule": "CCOc1cc(/C=C2\\C(=N)N3N=C(S(C)(=O)=O)SC3=NC2=O)ccc1OCCOc1cccc(OC)c1", "Potency": "inconclusive: 10 µM [activator, partial curve]"}, {"molecule": "CCC(C)(C)C1CCC(=NNC(=S)Nc2cccnc2)CC1", "note": "(stereo unspecified)", "Potency": "inconclusive: 3.55 µM [inhibitor, partial curve]"}, {"molecule": "Cc1ccc(-c2nc3ccccc3[nH]2)cc1NC(=O)c1ccco1", "Potency": "inactive"}, {"molecule": "Cc1cccc(N=C2NC(=O)c3cc([N+](=O)[O-])ccc32)c1", "Potency": "inactive"}, {"molecule": "Cc1cc(SCc2cc(=O)[nH]c3ccccc23)nc2ccccc12", "Potency": "inactive"}, {"molecule": "Cc1ccccc1Nc1nc(NCc2ccco2)c2ccccc2n1", "Potency": "inconclusive: 6.31 µM [activator, single point]"}, {"molecule": "N=c1n(CC(=O)c2cccc([N+](=O)[O-])c2)c2ccccc2n1Cc1ccccc1", "Potency": "active: 7.08 µM"}, {"molecule": "O=C1CC(/C=C/c2ccc([N+](=O)[O-])cc2)=Nc2ccccc2N1", "Potency": "inconclusive: 5.01 µM [activator, single point]"}, {"molecule": "Nc1nc2nc(-c3ccccc3)cc(C(F)(F)F)c2s1", "Potency": "inactive"}, {"molecule": "CCn1nc(C)c(/C=C/C(=O)Nc2ccc(C)cc2C)c1C", "Potency": "inconclusive: 12.6 µM [activator, partial curve]"}, {"molecule": "CC(C)C(=O)Nc1ccc2c(c1)nc(CCN1CCN(C)CC1)n2C", "Potency": "inconclusive: 35.5 µM [inhibitor, single point]"}, {"molecule": "CN(c1ccc(OCC(=O)OCC(=O)Nc2ccc(F)cc2)cc1)S(=O)(=O)c1ccc(Cl)cc1", "Potency": "inactive"}, {"molecule": "Cn1ncc(Br)c1C(=O)N/N=C/c1ccc(OS(=O)(=O)c2ccccc2)cc1", "Potency": "inconclusive: 35.5 µM [inhibitor, single point]"}, {"molecule": "Oc1cc2c(cc1C(c1ccc(Cl)c(Cl)c1)N1CCCC1)OCO2", "note": "(stereo unspecified)", "Potency": "inconclusive: 20 µM [inhibitor, single point]"}, {"molecule": "O=C(CNCc1ccco1)Nc1ccc(Oc2ccccc2)cc1", "Potency": "inactive"}, {"molecule": "C/C(CC(=O)NC1CCCCCC1)=N\\NC(=O)c1cnccn1", "Potency": "inactive"}, {"molecule": "CCC(C)Nc1ccc(NC(C)CC)cc1", "note": "(stereo unspecified)", "Potency": "inconclusive: 35.5 µM [inhibitor, single point]"}, {"molecule": "CCOc1ccc2nc(NC(=O)Cn3cnc4c3c(=O)n(C)c(=O)n4C)sc2c1", "Potency": "inconclusive: 35.5 µM [inhibitor, single point]"}, {"molecule": "COc1ccccc1-c1cc(C(=O)N/N=C/c2sccc2C)c2ccccc2n1", "Potency": "active: 7.08 µM"}, {"molecule": "S=C1CSc2ccccc2N1", "Potency": "active: 3.55 µM"}, {"molecule": "CCN(c1ccccc1)S(=O)(=O)c1ccc(Cl)c(C(=O)NCCc2ccc(OC)cc2)c1", "Potency": "inconclusive: 35.5 µM [activator, single point]"}, {"molecule": "COc1cc(C(=O)Nc2ccc(Cl)c(C(F)(F)F)c2)cc(OC)c1OC", "Potency": "inconclusive: 35.5 µM [activator, single point]"}, {"molecule": "O=C(Cn1c(/C=C/c2ccccc2)nc2ccccc21)Nc1ccc(F)cc1", "Potency": "inconclusive: 7.08 µM [activator, partial curve]"}, {"molecule": "c1ccc(CN2CCN(c3nc(NCc4ccco4)c4ccccc4n3)CC2)cc1", "Potency": "inconclusive: 25.1 µM [inhibitor, single point]"}, {"molecule": "COc1ccc(-n2c(SCC(=O)NCc3ccco3)nc3c([nH]c4ccccc43)c2=O)cc1", "Potency": "inactive"}, {"molecule": "O=C(Nc1nc(-c2ccccc2)cs1)c1ccc(N2CCOCC2)c([N+](=O)[O-])c1", "Potency": "inconclusive: 10 µM [activator, partial curve]"}, {"molecule": "Cc1cccc(Cl)c1NC(=S)NCCc1ccccn1", "Potency": "inconclusive: 12.6 µM [inhibitor, single point]"}, {"molecule": "Cc1cc(Cl)ccc1NC(=S)NCC(O)c1ccccc1", "note": "(stereo unspecified)", "Potency": "inconclusive: 17.8 µM [inhibitor, single point]"}, {"molecule": "Fc1ccccc1NC(=S)Nc1ccc(Br)cc1", "Potency": "active: 11.2 µM"}, {"molecule": "COc1ccc(N2CCN(C3CCCN(Cc4cccc(C)c4)C3)CC2)cc1", "note": "(stereo unspecified)", "Potency": "inactive"}, {"molecule": "O=c1[nH]c(CSc2nc(-c3ccc(F)cc3)cs2)nc2ccccc12", "Potency": "inactive"}, {"molecule": "C/C(=N\\NC(=O)Cc1c(Cl)cccc1Cl)c1cccnc1", "Potency": "inactive"}, {"molecule": "COc1ccccc1NC(=O)CSc1n[nH]c(-c2ccccn2)n1", "Potency": "active: 6.31 µM"}, {"molecule": "CC(=O)Oc1ccc(-c2cccc(C(=O)O)c2)cc1", "Potency": "inconclusive: 5.62 µM [inhibitor, single point]"}, {"molecule": "O=C(C1CCN(S(=O)(=O)c2ccc3ccccc3c2)CC1)N1CCN(c2ncccn2)CC1", "Potency": "inconclusive: 3.98 µM [activator, partial curve]"}, {"molecule": "O=[N+]([O-])C1=CC=C2C(=NC3(CCCCC3)N2O)C1=NCCO", "Potency": "inconclusive: 11.2 µM [inhibitor, single point]"}, {"molecule": "COc1cccc(/C=N/NC(=O)CNC(=O)c2cccnc2)c1O", "Potency": "active: 17.8 µM"}, {"molecule": "CC(=O)NC(N1CCCCC1)C(F)(F)C(F)(F)C(F)(F)C(F)F", "note": "(stereo unspecified)", "Potency": "inactive"}, {"molecule": "COc1cc(OC)cc(C(=O)N[C@H](C(=O)OCC(=O)Nc2cccc(F)c2)C(C)C)c1", "Potency": "inconclusive: 11.2 µM [activator, single point]"}, {"molecule": "COc1cccc(N(C(=O)CNC(=O)c2ccco2)C(C(=O)NC2CCCCC2)c2cccnc2)c1", "note": "(stereo unspecified)", "Potency": "inactive"}, {"molecule": "Cc1ccc(-n2nc3c(c2NC(=O)c2ccc4c(c2)OCO4)CSC3)cc1", "Potency": "inconclusive: 5.62 µM [inhibitor, partial curve, poor fit]"}, {"molecule": "COc1ccc(N(C=O)C(=S)SC)cc1", "Potency": "inconclusive: 22.4 µM [inhibitor, single point]"}, {"molecule": "CCc1nnc(NC(=O)CSc2nc3cccnc3n2C2CCCCC2)s1", "Potency": "active: 10 µM"}, {"molecule": "Cc1ccc(N(Cc2cc3cc(C)ccc3[nH]c2=O)C(=O)c2cccs2)cc1", "Potency": "inactive"}, {"molecule": "Cc1cc(C)cc(NC(=S)NCC2CCN(C(C)c3ccccc3)C2)c1", "note": "(stereo unspecified)", "Potency": "inconclusive: 8.91 µM [inhibitor, partial curve, poor fit]"}, {"molecule": "Cn1c(=O)c2c(ncn2CC(=O)Nc2nc3ccc(F)cc3s2)n(C)c1=O", "Potency": "inconclusive: 20 µM [activator, single point]"}, {"molecule": "CCOC(=O)c1c(NC(=S)Nc2ccc(OC)cc2)sc2c1CCCCC2", "Potency": "inconclusive: 1.41 µM [inhibitor, partial curve]"}, {"molecule": "Cc1ccc(NC(=S)C2=C(O)c3ccccc3N(C)S2(=O)=O)cc1", "Potency": "inconclusive: 14.1 µM [inhibitor, single point]"}]}]}
